# Among all 350,000 compounds or so, about 6,000 (1.7%) were called active. This list was built around the results that the source calls inconclusive (neither active nor inactive); the mix of calls is not that of the screen. No stated cut-off is given here; in the data, active means CPE inhibition above about 20% (passing the limit was not always enough); inconclusive means no clear call, values can overlap the other calls; tested in BHK-21 cells.
# Experiment: protection of cells from dengue 2 killing – plate reader, single concentration, primary screen (AID 651640);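 further: 0% = median of neutral control wells and 100% = median of positive control wells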
# Conditions: DENV2-infected cells, cytopathic effect rescue, at 9.99 µM, hits give high values
row,SMILES,CPE inhibition
1,O=C(CN1CCOCC1)N1CCCCN2[C@H](C1)[C@H](c1ccc(C#Cc3ccccc3F)cc1)[C@@H]2CO,active: 43.2%
2,Cc1ccc(N2C(=O)C3CCCN3C2=S)cc1C (stereo not given),inconclusive: 50.2%
3,C[C@@H]1CN([C@@H](C)CO)C(=O)c2cc(NC(=O)C3CCCCC3)ccc2O[C@@H](C)CCCCO[C@@H]1CN(C)Cc1ccncc1,inconclusive: 82.5%
4,Cc1ccccc1-c1ccc([C@H]2[C@@H](CO)N3CCCCN(S(C)(=O)=O)C[C@@H]23)cc1,inconclusive: 40.1%
5,COc1ccc(NC(=O)N(C)C[C@@H]2Oc3ncc(C4=CCCC4)cc3C(=O)N([C@H](C)CO)C[C@H]2C)cc1,inconclusive: -10.8%
6,OC[C@H]1Nc2ccc(-c3cccc(F)c3)cc2[C@@H]2[C@H]1CCN2Cc1ccc(F)cc1,active: 47.6%
7,CCc1cc(=O)[nH]c(SCC(=O)NCC2CCCO2)n1 (stereo not given),inconclusive: 43.3%
8,O=C(Cc1c(F)cccc1Cl)NC1CCN(Cc2ccccc2)CC1,inconclusive: 23.6%
9,COc1ccccc1NC(=O)CN1CCOCC1,active: 74.9%
10,COc1ccc(NC(=O)c2nnn(CC(=O)Nc3ccc4c(c3)OCO4)c2N)cc1OC,inconclusive: 20.4%
11,COCC(=O)Nc1ccc2c(c1)C(=O)N(C)C[C@H](OC)[C@@H](C)CN(Cc1cc(F)ccc1F)[C@H](C)CO2,inactive: 0.324%
12,C[C@@H]1CN([C@@H](C)CO)C(=O)Cc2cc(NC(=O)CCC(F)(F)F)ccc2O[C@@H]1CN(C)Cc1ccc(C(=O)O)cc1,inconclusive: 21.6%
13,Cc1ccc2ncnc(Oc3ncccc3[N+](=O)[O-])c2c1,inactive: -1.25%
14,CO[C@@H]1CN(C)C(=O)c2ccc(NC(C)=O)cc2OC[C@@H](C)N(S(C)(=O)=O)C[C@H]1C,active: 93.9%
15,CN1c2ccc(-c3ccc(F)cc3)cc2[C@@H]2[C@@H](CCN2C(=O)C2CCOCC2)[C@@H]1CO,inconclusive: 21.8%
16,CN1CCN(C2CCN(c3ccc(Nc4nnc(Cl)c(Nc5ccccc5S(C)(=O)=O)n4)c(OC(CF)CF)c3)CC2)CC1,active: 36.8%
17,O=C(Cc1ccccn1)NCC[C@H]1CC[C@@H](NC(=O)Nc2ccc(F)cc2)[C@H](CO)O1,inactive: -12.6%
18,Cc1ccccc1Cn1c(C)c(C(=O)NCc2cccc(C(F)(F)F)c2)sc1=O,inconclusive: 25.1%
19,O=C(NCCN1CCCC1)[C@H]1N[C@H]2c3ccc(-c4ccccc4)c(=O)n3C[C@H]2[C@@H]1CO,active: 85%
20,C[C@@H]1CN([C@@H](C)CO)C(=O)c2cc(NC(=O)CCCN(C)C)ccc2O[C@@H]1CN(C)Cc1ccccc1,active: 29.5%
21,O=C(O)c1ccc(CP(=O)(c2ccccc2)c2ccccc2)cc1,inconclusive: 24.8%
22,CCOCCCNC(=S)NC1CC2CCC(C1)N2Cc1ccccc1 (stereo not given),inactive: -0.266%
23,CCCCOc1ccc(N(CC(=O)NCc2ccccc2)C(=O)c2csnn2)cc1,inconclusive: 21.6%
24,NS(=O)(=O)c1ccc(N2N=C(c3ccccc3)CC2c2ccccc2Cl)cc1 (stereo not given),inconclusive: 21.5%

# Two consecutive entries out of the list so far, for reference:
row,SMILES,CPE inhibition
19,O=C(NCCN1CCCC1)[C@H]1N[C@H]2c3ccc(-c4ccccc4)c(=O)n3C[C@H]2[C@@H]1CO,active: 85%
20,C[C@@H]1CN([C@@H](C)CO)C(=O)c2cc(NC(=O)CCCN(C)C)ccc2O[C@@H]1CN(C)Cc1ccccc1,active: 29.5%

# (listing goes on)

row,SMILES,CPE inhibition
1,CCCN1Cc2cccc(C(=O)Nc3ccc4c(c3)OCCO4)c2C1=O,active: 93.6%
2,COc1ccc(S(=O)(=O)N[C@@H]2CC[C@@H](CC(=O)NCCc3ccccc3)O[C@@H]2CO)cc1,inconclusive: 21%
3,NC(=O)c1ccc(NC(=O)COC(=O)c2ccc3c(c2)OCO3)cc1,inconclusive: 32.1%
4,C[C@H](CO)N1C[C@H](C)[C@H](CN(C)C(=O)Nc2ccccc2F)Oc2cc(-c3ccc(F)cc3)ccc2S1(=O)=O,active: 25.9%
5,CCCCn1c(N)c(N(CCOC)C(=O)c2ccc(C)c(S(=O)(=O)N3CCCCC3)c2)c(=O)[nH]c1=O,inconclusive: 24.9%
6,CCc1cccc(C)c1NC(=O)CSc1nnc(C)o1,inconclusive: 59.9%
7,COc1ccccc1N1CCN(C(=O)c2cc(S(=O)(=O)N3CCCCC3)ccc2C)CC1,active: 34.1%
8,CSc1ccc(/C=C/C(=O)Nc2ccccc2)cc1,inconclusive: 58.6%
9,C[C@@H]1CCCCO[C@H](CN(C)Cc2ccccc2)[C@H](C)CN([C@H](C)CO)C(=O)c2cc(NC(=O)C3CCCCC3)ccc2O1,inactive: -7.91%
10,CC(C)NC(=O)Nc1cccc2c1O[C@@H](CN(C)S(=O)(=O)c1cn(C)cn1)[C@H](C)CN([C@H](C)CO)C2=O,inconclusive: 24%
11,COc1ccc(OCCNC(=O)C2(C)CCN2Cc2ccc3ccccc3c2)cc1 (stereo not given),inactive: -3.6%
12,C[C@@H]1CCCCO[C@H](CN(C)C(=O)Nc2cccc3ccccc23)[C@@H](C)CN([C@H](C)CO)C(=O)c2cc(NS(C)(=O)=O)ccc2O1,inconclusive: 89.1%
13,C[C@H]1CCCCO[C@@H](CN(C)C(=O)Nc2ccccc2)[C@@H](C)CN([C@@H](C)CO)C(=O)c2cc(N(C)C)ccc2O1,inactive: 0.691%
14,C[C@@H](NC(=O)C[C@@H]1C=C[C@H](NC(=O)Cc2ccccn2)[C@H](CO)O1)c1ccccc1,inconclusive: 21.2%
15,CNC[C@H]1OCCCC[C@@H](C)Oc2ccc(NC(=O)Nc3ccc(OC)cc3)cc2C(=O)N([C@@H](C)CO)C[C@@H]1C,inconclusive: 93%
16,CCOc1ccc(NC(=O)CN(C)C(=O)c2ccccc2OCc2c(C)noc2C)cc1OCC,active: 24.6%
17,Cc1noc(C)c1NC(=O)Nc1cccc2c1O[C@H](CN(C)C(=O)Nc1cccc3ccccc13)[C@@H](C)CN([C@H](C)CO)C2=O,inactive: -1.6%
18,CCCCc1nc2cc(C(=O)NCCc3cnn(C)c3)ccc2o1,active: 36%
19,COC(=O)CN1C(=O)[C@H]2[C@@H](/C=C/c3ccccc3)N3C(=O)CN(CC4CC4)C(=O)[C@@]3(Cc3ccccc3)[C@H]2C1=O,active: 51%
20,O=C(c1ccc(S(=O)(=O)N2CCOCC2)cc1)N(c1cccc(Cl)c1)C1C=CS(=O)(=O)C1 (stereo not given),inconclusive: 20.5%
21,COc1ccc(NC(=O)N[C@H]2CC[C@H](CC(=O)NC3CCC3)O[C@H]2CO)cc1,inconclusive: 61.2%
22,CCOC(=O)[C@]12CCCC=C1N(Cc1ccccc1)C(=O)[C@H](CC(=O)NCc1cccs1)C2,active: 54.6%
23,CS(=O)(=O)c1ccc(C(=O)OCC(=O)N2CCN(CCC3CCCCC3)CC2)cc1[N+](=O)[O-],inconclusive: 24.9%
24,CCc1ccc(NC(=O)C2CCN(S(=O)(=O)c3ccc4c(c3)NC(=O)C(C)S4)CC2)cc1 (stereo not given),inconclusive: 32.4%

# Grouped by structure: the compounds so far containing a halogen (12)
row,SMILES,CPE inhibition
1,O=C(CN1CCOCC1)N1CCCCN2[C@H](C1)[C@H](c1ccc(C#Cc3ccccc3F)cc1)[C@@H]2CO,active: 43.2%
6,OC[C@H]1Nc2ccc(-c3cccc(F)c3)cc2[C@@H]2[C@H]1CCN2Cc1ccc(F)cc1,active: 47.6%
8,O=C(Cc1c(F)cccc1Cl)NC1CCN(Cc2ccccc2)CC1,inconclusive: 23.6%
11,COCC(=O)Nc1ccc2c(c1)C(=O)N(C)C[C@H](OC)[C@@H](C)CN(Cc1cc(F)ccc1F)[C@H](C)CO2,inactive: 0.324%
12,C[C@@H]1CN([C@@H](C)CO)C(=O)Cc2cc(NC(=O)CCC(F)(F)F)ccc2O[C@@H]1CN(C)Cc1ccc(C(=O)O)cc1,inconclusive: 21.6%
15,CN1c2ccc(-c3ccc(F)cc3)cc2[C@@H]2[C@@H](CCN2C(=O)C2CCOCC2)[C@@H]1CO,inconclusive: 21.8%
16,CN1CCN(C2CCN(c3ccc(Nc4nnc(Cl)c(Nc5ccccc5S(C)(=O)=O)n4)c(OC(CF)CF)c3)CC2)CC1,active: 36.8%
17,O=C(Cc1ccccn1)NCC[C@H]1CC[C@@H](NC(=O)Nc2ccc(F)cc2)[C@H](CO)O1,inactive: -12.6%
18,Cc1ccccc1Cn1c(C)c(C(=O)NCc2cccc(C(F)(F)F)c2)sc1=O,inconclusive: 25.1%
24,NS(=O)(=O)c1ccc(N2N=C(c3ccccc3)CC2c2ccccc2Cl)cc1 (stereo not given),inconclusive: 21.5%
4,C[C@H](CO)N1C[C@H](C)[C@H](CN(C)C(=O)Nc2ccccc2F)Oc2cc(-c3ccc(F)cc3)ccc2S1(=O)=O,active: 25.9%
20,O=C(c1ccc(S(=O)(=O)N2CCOCC2)cc1)N(c1cccc(Cl)c1)C1C=CS(=O)(=O)C1 (stereo not given),inconclusive: 20.5%

# The list goes on:

row,SMILES,CPE inhibition
1,COc1ccc(CN2CCN(S(=O)(=O)c3ccc(NC(C)=O)cc3)CC2)c(OC)c1OC,inconclusive: 47%
2,CO[C@@H]1CN(C)C(=O)c2ccc(NC(=O)c3ccccc3)cc2OC[C@@H](C)N(C(=O)CN(C)C)C[C@@H]1C,inactive: 8.14%
3,COc1ccc2c3c(n(C)c2c1)[C@H](CO)N(C(=O)NC1CCCC1)CC31CCN(C(C)=O)CC1,inactive: -7.79%
4,CC(C)NC(=O)COc1coc(CN2CCN(c3ccccc3F)CC2)cc1=O,inconclusive: 25.6%
5,CCOc1ccc(NC(=O)c2cc(S(=O)(=O)N3CCOCC3)cs2)cc1,inconclusive: 20.6%
6,C[C@@H]1CN([C@@H](C)CO)S(=O)(=O)c2ccc(C#CC3CCCCC3)cc2O[C@@H]1CN(C)C,inconclusive: 26.3%
7,COc1ccc(NC(=O)C(Cc2ccccc2)n2cccc2)c(OC)c1 (stereo not given),inconclusive: 39.1%
8,C[C@H](CO)N1C[C@H](C)[C@H](CN(C)CC2CC2)Oc2cc(C#Cc3cccc(F)c3)ccc2S1(=O)=O,inconclusive: 22.5%
9,CCOc1ccccc1NC(=O)C1CCN(C(=O)C2CC(=O)N(c3ccc(C)cc3)C2)CC1 (stereo not given),inconclusive: 35.8%
10,CC(C)c1cn(CC[C@@H]2CC[C@H](N)[C@@H](CO)O2)nn1,inactive: -1.66%
11,C[C@@H]1CCCCO[C@@H](CN(C)CC2CC2)[C@H](C)CN([C@H](C)CO)C(=O)c2cc(NC(=O)CCCN(C)C)ccc2O1,active: 43.2%
12,CCOC(=O)Nc1ccc2c(c1)Cc1cc([N+](=O)[O-])ccc1-2,inconclusive: 53.9%
13,C[C@H](NC(=O)[C@H](Cc1ccccc1)n1c(=O)[nH]c2ccccc2c1=O)C(=O)N1CCC[C@H]1C(=O)O,inconclusive: 56.7%
14,C[C@@H]1CN([C@@H](C)CO)C(=O)c2cccc(NC(=O)Nc3ccc4c(c3)OCO4)c2O[C@H]1CN(C)S(=O)(=O)c1ccc(F)cc1,inactive: -5.85%
15,COCC(=O)Nc1ccc2c(c1)OC[C@@H](C)N(Cc1cccc(F)c1)C[C@H](C)[C@H](OC)CN(C)C2=O,active: 35.5%
16,CN1CCN(C(=O)C[C@@H]2CC[C@H](NC(=O)Cc3ccccn3)[C@H](CO)O2)CC1,inconclusive: 22.3%
17,C[C@H]1CCCCO[C@H](CN(C)C(=O)C2CCCCC2)[C@@H](C)CN([C@@H](C)CO)C(=O)c2cc(NC(=O)Nc3ccc(C(F)(F)F)cc3)ccc2O1,inconclusive: 30.8%
18,Cc1ccc(-n2cc(CN3CCN(Cc4nccn4C)CC3)c(-c3ccc(F)cc3)n2)cc1,inconclusive: 37.5%
19,COc1ccc2c3c(n(C)c2c1)[C@H](CO)N(C(=O)Nc1ccc(F)cc1)CC31CCN(S(=O)(=O)c2cccc(F)c2)CC1,inconclusive: 34.4%
20,O=C(NCC[C@@H]1CC[C@@H](NC(=O)C2CCCCC2)[C@@H](CO)O1)c1cnccn1,inactive: -5.04%
21,Cc1ccc(-n2c(C)c(C)c3c(N)ncnc32)cc1,inconclusive: 27.9%
22,COc1ccc(NC(=O)Nc2ccc3c(c2)C(=O)N([C@@H](C)CO)C[C@H](C)[C@H](CN(C)C(=O)Nc2ccc(OC)cc2)OCCCC[C@@H](C)O3)cc1,inconclusive: 44.2%
